Some of the results follow.
Tests used:
Experiment in all cases: log2 fold change, soluble protein after heating vs DMSO (PISA); higher = thermal stabilisation; K562 cells, 10 uM, 30 min; active = over 0.2 and 3.5 SD of the protein, either way, in both replicates (recomputed)
[1] = compound: C/C(=N\NC(=O)C1=CC(=CC=C1)S(=O)(=O)N2CCOCC2)/C3=C(C=CC(=C3)Cl)O
Outline: (§1)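 Soluble protein was defined as the supernatant after 21,000xg for 90 min. It came from K562 cells at 2×10^6 cells/mL given 10 μM compound for 30 min, heated in aliquots for 3 min across 48°C-58°C, pooled, and extracted in PBS with 0.5% NP-40 at 4°C, and was quantified by TMTpro 16plex LC-MS/MS with equalised channel sums. Thermal stability against control samples, from duplicates, is reported as log2 fold change.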

By UniProt entry, the sequences of proteins in these tests, tags left out. Where a name states a change or a piece, a line headed by the entry shows the natural chain unless it says otherwise.
UniProt O94915: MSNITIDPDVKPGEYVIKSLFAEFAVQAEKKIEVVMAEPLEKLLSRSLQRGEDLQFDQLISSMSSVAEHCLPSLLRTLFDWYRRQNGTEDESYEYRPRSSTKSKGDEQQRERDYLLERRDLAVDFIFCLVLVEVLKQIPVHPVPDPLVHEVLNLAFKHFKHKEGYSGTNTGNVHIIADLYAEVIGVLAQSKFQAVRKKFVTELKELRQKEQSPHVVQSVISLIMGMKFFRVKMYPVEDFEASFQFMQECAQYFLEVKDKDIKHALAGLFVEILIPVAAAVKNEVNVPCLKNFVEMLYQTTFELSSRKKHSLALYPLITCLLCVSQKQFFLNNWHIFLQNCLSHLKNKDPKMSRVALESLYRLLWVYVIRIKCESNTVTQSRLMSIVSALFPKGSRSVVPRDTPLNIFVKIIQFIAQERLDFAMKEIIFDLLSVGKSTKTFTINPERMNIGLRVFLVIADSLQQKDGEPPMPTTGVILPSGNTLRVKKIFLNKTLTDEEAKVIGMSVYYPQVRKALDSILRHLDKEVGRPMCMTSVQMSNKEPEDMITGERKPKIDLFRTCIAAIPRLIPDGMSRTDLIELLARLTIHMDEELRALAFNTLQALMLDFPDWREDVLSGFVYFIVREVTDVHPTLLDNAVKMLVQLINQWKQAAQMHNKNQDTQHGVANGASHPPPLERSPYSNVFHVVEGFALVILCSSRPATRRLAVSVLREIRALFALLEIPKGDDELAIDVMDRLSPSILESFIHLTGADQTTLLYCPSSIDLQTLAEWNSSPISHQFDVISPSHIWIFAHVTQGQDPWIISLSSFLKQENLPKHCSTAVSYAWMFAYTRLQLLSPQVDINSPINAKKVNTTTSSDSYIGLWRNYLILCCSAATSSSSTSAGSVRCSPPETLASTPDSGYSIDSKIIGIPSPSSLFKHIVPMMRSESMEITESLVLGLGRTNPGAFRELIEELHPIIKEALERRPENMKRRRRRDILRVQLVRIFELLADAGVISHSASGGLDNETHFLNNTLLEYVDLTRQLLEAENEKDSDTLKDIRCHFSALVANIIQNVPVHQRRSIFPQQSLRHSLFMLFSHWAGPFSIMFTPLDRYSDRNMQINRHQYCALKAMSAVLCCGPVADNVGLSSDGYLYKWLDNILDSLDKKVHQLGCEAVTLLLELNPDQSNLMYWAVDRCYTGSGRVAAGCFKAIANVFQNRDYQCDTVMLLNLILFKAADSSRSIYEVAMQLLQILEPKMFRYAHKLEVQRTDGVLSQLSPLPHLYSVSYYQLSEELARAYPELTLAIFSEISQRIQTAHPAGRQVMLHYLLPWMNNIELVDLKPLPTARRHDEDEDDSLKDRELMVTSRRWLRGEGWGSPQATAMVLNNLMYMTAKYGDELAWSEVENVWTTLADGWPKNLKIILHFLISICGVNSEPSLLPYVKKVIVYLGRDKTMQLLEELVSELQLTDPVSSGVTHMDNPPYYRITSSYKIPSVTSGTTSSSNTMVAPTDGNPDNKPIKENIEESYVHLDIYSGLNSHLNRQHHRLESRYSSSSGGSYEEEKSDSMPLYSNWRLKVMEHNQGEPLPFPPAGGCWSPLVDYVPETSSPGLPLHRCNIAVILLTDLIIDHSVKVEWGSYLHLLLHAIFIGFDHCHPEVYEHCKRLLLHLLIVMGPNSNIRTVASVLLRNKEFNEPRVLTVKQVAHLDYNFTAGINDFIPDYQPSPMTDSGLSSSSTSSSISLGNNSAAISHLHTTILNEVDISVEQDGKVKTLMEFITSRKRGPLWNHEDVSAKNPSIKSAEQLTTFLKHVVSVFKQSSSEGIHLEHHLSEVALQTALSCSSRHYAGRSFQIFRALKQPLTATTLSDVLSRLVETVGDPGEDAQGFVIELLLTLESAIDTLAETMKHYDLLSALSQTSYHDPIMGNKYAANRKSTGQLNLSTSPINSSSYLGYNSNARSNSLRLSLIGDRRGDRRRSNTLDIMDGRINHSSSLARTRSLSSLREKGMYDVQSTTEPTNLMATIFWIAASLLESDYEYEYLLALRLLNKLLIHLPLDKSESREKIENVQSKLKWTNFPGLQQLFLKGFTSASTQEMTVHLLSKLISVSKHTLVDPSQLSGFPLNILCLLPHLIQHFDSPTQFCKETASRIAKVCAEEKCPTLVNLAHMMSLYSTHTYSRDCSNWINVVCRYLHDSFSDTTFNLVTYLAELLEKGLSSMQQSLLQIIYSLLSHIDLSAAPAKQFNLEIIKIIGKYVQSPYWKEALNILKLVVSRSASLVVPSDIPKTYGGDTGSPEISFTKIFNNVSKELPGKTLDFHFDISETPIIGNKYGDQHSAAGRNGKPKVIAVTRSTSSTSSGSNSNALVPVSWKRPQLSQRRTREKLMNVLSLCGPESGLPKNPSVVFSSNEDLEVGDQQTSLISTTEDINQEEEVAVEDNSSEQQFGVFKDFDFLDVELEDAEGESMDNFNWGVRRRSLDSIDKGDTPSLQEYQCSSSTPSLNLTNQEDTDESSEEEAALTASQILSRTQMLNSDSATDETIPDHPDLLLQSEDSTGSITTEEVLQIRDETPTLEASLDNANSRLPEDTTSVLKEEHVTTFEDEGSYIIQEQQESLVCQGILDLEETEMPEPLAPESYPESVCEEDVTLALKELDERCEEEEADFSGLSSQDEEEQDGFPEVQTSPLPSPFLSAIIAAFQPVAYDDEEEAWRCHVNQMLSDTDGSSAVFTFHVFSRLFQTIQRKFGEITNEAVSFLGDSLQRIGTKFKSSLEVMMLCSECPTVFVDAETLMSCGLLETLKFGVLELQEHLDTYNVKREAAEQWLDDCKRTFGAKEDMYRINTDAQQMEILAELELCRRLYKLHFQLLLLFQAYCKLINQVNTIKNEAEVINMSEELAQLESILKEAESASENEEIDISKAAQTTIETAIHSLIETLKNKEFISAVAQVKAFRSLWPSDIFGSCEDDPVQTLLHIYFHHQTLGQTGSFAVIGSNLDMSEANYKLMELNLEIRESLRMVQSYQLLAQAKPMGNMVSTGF
UniProt Q96QD9: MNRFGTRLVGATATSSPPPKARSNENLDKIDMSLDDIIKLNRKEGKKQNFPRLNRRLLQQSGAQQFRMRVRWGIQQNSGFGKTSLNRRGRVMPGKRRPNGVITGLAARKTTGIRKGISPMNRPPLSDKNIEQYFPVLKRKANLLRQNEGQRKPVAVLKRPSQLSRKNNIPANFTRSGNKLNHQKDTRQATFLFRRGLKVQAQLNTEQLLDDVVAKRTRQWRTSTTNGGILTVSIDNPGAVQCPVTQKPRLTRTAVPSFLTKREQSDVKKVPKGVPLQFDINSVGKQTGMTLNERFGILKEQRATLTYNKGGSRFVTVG
UniProt P16383: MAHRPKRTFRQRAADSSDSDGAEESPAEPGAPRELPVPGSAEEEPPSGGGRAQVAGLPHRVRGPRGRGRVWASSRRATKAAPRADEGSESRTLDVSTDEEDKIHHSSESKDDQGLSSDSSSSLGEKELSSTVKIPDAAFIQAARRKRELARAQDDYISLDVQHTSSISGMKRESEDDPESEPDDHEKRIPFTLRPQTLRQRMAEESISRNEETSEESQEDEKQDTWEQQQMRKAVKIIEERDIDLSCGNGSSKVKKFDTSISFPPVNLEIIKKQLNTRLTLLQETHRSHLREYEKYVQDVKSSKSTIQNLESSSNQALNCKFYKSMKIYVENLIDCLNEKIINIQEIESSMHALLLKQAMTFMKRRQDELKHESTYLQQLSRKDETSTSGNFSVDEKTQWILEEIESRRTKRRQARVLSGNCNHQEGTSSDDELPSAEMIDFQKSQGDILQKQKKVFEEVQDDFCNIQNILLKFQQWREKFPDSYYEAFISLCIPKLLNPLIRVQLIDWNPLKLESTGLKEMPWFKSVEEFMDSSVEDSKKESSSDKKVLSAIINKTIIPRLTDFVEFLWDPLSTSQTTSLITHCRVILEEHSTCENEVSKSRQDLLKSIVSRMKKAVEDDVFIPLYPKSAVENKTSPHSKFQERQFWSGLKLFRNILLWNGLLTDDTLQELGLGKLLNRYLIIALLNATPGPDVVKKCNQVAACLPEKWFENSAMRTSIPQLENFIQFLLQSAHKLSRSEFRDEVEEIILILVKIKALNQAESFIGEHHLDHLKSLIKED
UniProt Q13467, whole entry, looked up: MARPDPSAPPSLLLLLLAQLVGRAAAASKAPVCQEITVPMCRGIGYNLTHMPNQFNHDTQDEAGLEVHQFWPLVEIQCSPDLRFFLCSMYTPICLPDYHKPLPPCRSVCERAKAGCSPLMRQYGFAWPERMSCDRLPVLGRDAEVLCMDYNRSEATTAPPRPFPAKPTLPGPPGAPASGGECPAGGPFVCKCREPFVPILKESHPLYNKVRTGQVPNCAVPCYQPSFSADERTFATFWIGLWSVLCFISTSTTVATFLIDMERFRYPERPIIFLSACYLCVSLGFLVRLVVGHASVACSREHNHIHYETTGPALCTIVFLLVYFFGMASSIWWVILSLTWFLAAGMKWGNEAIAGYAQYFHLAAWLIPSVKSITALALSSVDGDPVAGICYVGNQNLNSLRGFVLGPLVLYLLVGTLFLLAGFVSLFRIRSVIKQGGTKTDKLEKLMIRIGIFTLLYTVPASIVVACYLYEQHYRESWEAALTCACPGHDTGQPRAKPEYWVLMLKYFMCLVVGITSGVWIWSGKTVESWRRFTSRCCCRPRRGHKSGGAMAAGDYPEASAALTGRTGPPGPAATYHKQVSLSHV
UniProt Q96CN9: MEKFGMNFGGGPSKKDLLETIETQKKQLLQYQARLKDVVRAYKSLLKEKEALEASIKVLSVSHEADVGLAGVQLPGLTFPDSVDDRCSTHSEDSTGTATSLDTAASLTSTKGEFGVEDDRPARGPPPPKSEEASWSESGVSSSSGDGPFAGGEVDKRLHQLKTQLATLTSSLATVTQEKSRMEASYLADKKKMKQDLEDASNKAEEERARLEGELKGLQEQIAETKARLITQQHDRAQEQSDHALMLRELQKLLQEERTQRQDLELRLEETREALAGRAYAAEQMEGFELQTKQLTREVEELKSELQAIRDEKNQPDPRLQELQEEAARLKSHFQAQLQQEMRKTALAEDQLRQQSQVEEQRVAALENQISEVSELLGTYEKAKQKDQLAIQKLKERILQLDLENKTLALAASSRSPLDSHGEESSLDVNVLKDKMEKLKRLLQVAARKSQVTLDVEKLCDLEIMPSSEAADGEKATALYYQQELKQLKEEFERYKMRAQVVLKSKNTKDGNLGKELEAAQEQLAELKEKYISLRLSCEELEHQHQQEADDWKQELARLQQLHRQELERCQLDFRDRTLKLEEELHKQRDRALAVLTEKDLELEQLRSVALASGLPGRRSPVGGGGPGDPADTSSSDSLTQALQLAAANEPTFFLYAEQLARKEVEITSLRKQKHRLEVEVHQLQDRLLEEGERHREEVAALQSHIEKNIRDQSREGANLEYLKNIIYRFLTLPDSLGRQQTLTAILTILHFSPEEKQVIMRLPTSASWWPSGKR
UniProt Q99988: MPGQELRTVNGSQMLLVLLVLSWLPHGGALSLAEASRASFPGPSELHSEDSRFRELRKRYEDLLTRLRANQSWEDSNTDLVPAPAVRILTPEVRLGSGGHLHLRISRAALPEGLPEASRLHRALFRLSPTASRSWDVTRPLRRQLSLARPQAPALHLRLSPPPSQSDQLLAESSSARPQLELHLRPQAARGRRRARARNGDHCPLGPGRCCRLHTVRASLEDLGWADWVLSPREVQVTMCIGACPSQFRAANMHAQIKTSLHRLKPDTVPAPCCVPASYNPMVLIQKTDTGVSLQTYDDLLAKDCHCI
UniProt Q96DB9: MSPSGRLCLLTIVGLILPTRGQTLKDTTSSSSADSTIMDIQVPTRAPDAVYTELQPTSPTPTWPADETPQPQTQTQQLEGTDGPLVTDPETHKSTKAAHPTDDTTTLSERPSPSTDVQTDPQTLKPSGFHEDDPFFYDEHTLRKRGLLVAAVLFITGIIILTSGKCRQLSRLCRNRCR
UniProt Q8IVP5: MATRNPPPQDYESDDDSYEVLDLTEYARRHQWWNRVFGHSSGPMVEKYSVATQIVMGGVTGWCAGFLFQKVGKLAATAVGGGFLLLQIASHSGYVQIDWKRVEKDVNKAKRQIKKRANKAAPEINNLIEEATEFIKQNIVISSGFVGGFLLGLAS

[2] = compound: C1=CC(=C(C=C1Cl)C2=NC3=NC=CN=C3C(=N2)NC4=CC=NC=C4)F
Outline: as §1

[3] = compound: C1=CC2=C(C=CC(=C2)/C=C\3/C(=O)NC(=NCC4=CC=CS4)S3)N=C1
Outline: as §1

[4] = compound: C1=CC=C(C=C1)C2=NC(=C(N2)C3=CC=NC=C3)C4=CC(=C(C=C4)Cl)O
Outline: as §1

[5] = compound: C1=CC=C2C(=C1)C3=NNC4=CC=CC(=C43)C2=O
Outline: as §1

[6] = compound: C1=CC2=NC=CN=C2C=C1/C=C/3\C(=O)NC(=O)S3
Outline: as §1

[7] = compound: C1CCN(C1)C(=O)NC2=CC=CC(=C2)NC3=NC=C(C(=N3)NCCC4=CN=CN4)Br
Outline: as §1

[8] = compound: C1CN(CCC1(CC2=CC=C(C=C2)Cl)N)C3=NC=NC4=C3C=CN4
Outline: as §1

erlotinib = compound: C#Cc1cccc(Nc2ncnc3cc(OCCOC)c(OCCOC)cc23)c1 [erlotinib]
Outline: as §1

[9] = compound: C1=CC(=CC=C1C2=NC3=C(N2)C=C(C=C3)C(=O)N)OC4=CC=C(C=C4)Cl
Outline: as §1

Measured: log2 fold change

FRYL isoform 2 (UniProt O94915)
inactive: [1] 0.02 | [2] 0.064 | [3] 0.084 | [4] 0.032 | [5] -0.121

GALNT7 (UniProt H0YAH3)
inactive: [2] -0.103 | [6] -0.171

FYTTD1 (UniProt Q96QD9)
inactive: [1] -0.281 | [2] -0.2 | [3] 0.31 | [5] -0.119 | [7] 0.159 | [8] -0.029

GCFC2 isoform 3 (UniProt P16383)
inactive: erlotinib -0.077 | [9] -0.094 | [7] -0.332 | [8] 0.105

FZD5 (UniProt Q13467)
inactive: erlotinib 0.169 | [2] -0.103 | [9] -0.071 | [6] -0.012 | [7] 0.265 | [8] 0.277

GCC1 (UniProt Q96CN9)
inactive: erlotinib -0.132 | [2] -0.322 | [9] 0.187 | [4] 0.087

GDF15 (UniProt Q99988)
inactive: [1] -0.055 | [3] 0.109 | [6] 0.034 | [4] -0.019 | [5] -0.098 | [7] -0.351 | [8] -0.188

FXYD5 (UniProt Q96DB9)
inactive: [1] -0.021 | [3] 0.227 | [4] -0.059 | [5] -0.044

Copied from the entries so far (2 entries):
GDF15 (UniProt Q99988)
inactive: [1] -0.055 | [3] 0.109 | [6] 0.034 | [4] -0.019 | [5] -0.098 | [7] -0.351 | [8] -0.188

FXYD5 (UniProt Q96DB9)
inactive: [1] -0.021 | [3] 0.227 | [4] -0.059 | [5] -0.044

More entries follow.

FUNDC1 (UniProt Q8IVP5)
active: [6] 0.597

Reference: the supplement of paper PMC10849652
